Reference: patent US6548242B2, “Process for the sterilization of biological compositions and the product thereby” (priority 1990, dated 2003)
For some of these results: At least one compound was matched to its structure with a doubt left. Some entries share one result that the patent states for a list of compounds.

How the values were obtained:
Assay type in all cases: cell-based
platelets = assay: Platelet aggregation in response to collagen after treatment of platelet concentrate; settings: platelet conc.; for aggregation response to collagen: 50 μg/ml AMT, 90 min UVA; for Aggregation Response % Control: 25 μg/ml AMT, 7.5 mW/cm^2 UVA 30 min
bacteriophage M13 = system: bacteriophage M13
lymphocytes = assay: Lymphocyte inactivation, 3H thymidine uptake after mitogen stimulation; settings: 50 Gy γ-irradiation, independent of presence or concentration of rutin

## Cc1oc2c(C)c3oc(=O)cc(C)c3cc2c1CN [AMT, 4′-aminomethyl-4,5′,8-trimethylpsoralen]
platelets; no quencher
  aggregation response to collagen: less than 30%

## OCC(O)CO [Glycerol, glycerol]
platelets; quencher 4 mM, listed as glycerol
  Aggregation Response % Control: more than 90 % Control

## OC[C@@H](O)[C@@H](O)[C@H](O)[C@H](O)CO [Mannitol, mannitol]
platelets; quencher 2 mM, listed as mannitol
  Aggregation Response % Control: more than 90 % Control
platelets; 2 mM mannitol
  aggregation response to collagen: less than 30%

## C[C@@H]1O[C@@H](OC[C@H]2O[C@@H](Oc3c(-c4ccc(O)c(O)c4)oc4cc(O)cc(O)c4c3=O)[C@H](O)[C@@H](O)[C@@H]2O)[C@H](O)[C@H](O)[C@H]1O [rutin]
Bacteriophage M13
  Virus kill, as measured with M13: exceeded 5 log10
lymphocytes; PCs
  3H thymidine uptake retained by irradiated lymphocytes: none
lymphocytes; RBCCs
  3H thymidine uptake retained by irradiated lymphocytes: none
